Assay results as given in paper PMC8452638.

Target: RIP-1 with C-terminal 3xFLAG tag (nematode)
Test: co-purification on anti-FLAG affinity gel; RFS-1/RIP-1 expressed in budding yeast; cleared lysate applied to anti-FLAG affinity gel, beads extensively washed, eluted with 3xFLAG peptide

binding: binds
B1: RFS-1 (protein, UniProt P34348 1-245)
chain: MDPSENVFKYETAYDLLVRLGAERLFLRTCLSILDPVLELHPGKCYEIDGDLGVGKTQICYSFAAKFLQTKKTAKMGWIGATPLRTDHLLLHIEHFGNQTNEDILDRIVCKRVEKIAELQDSLTRFLDTINLQLVIVENIDAILHDTVYHKEMGRSMQSDVVERIRKLTKLEITVILTNHITHWRGYPAPALGAFWSSQINNRFFIEKRNDDSDIRIVSAMKGEQDDGMNRIEFKIGDRGLKAVE

No constants are given. Whether binding was seen depends on the method and setting. Binding seen in cells or lysates may run through a third protein. Binding can be weak; no strength is given.
